# Reference: PubChem BioAssay AID1347426 (Functional Genomics Laboratory (NCATS/FGL), 2020)
# About 1,400 (4.5%) of roughly 31,000 sequences were called active.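 The calls were made as follows: active = median seed-adjusted z-score above 1 or below -1; inactive = the rest.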 The list shows a part of the results.
# Experiment: Novel Modifiers of Survival Motor Neuron (SMN) Protein: Gene Identification via Genome-wide siRNA Screen;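 also: luminescence tracks full-length SMN protein made from the SMN2 reporter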
# Conditions: HEK293T SMN2-luciferase reporter, siRNA knockdown, 72 h; actives lie on both sides
# Method in brief: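 siRNA screen, 10418 genes ×3 siRNAs; 1 pmol/well, lipid reverse transfection into HEK293T SMN2-luc reporter line. 72 h, 37 °C, 5% CO2; ONE-Glo readout. Data: neg-ctrl normalized, log10, MAD; hit = MAD >1.0 or < -1.0.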
row,Sequence,median seed-adjusted z-score
1,GAAGGUUUAUUAUCGAGAATT against NID1,inactive: 0.761
2,GGCUGAUGCACAUACAGAATT against CATSPER3,inactive: 0.685
3,UCCUUGAUGUCACAAAGAATT against BDH2,inactive: -0.242
4,CCAUUGUCUUCCACCGAAATT against RAN,active: -3.09
5,GCAAGUGACUGCUAUCAAUTT against GRIA2,active: -1.02
6,GCAAGCAGGUUAUCAACGATT against FLII,inactive: -0.353
7,CCAGGAACUAUGACACGUATT against RHBDD1,inactive: 0.00277
8,CCAUCGACAUUGAAACCUUTT against PITPNM2,inactive: 0.275
9,CCUCCAAUAUGAGCGGUUUTT against METTL7B,inactive: 0.223
10,CCAGGUCCCUAAUCAUGGATT against NOXA1,inactive: -0.441
11,ACACUACACGAAUCCAACATT against ZNF280D,inactive: 0.374
12,CCUCUUCCAUGUUUCGAAATT against YY1AP1,inactive: 0.0453
13,GUUUCGAAAUGAACGUGCATT against ACACA,inactive: 0.00665
14,GGUCAUAUCAGGAUACCAATT against PCSK5,inactive: -0.158
15,CCUUUGUGGUGAGCGAGUATT against SFRS4,inactive: 0.239
16,AGGUCUGCGUGAAUCCCUATT against SMAD3,inactive: -0.715
17,GAUAUGCACCCAAUCGAAATT against B3GALT2,inactive: 0.031
18,GCAAUGAUCGAAAUCACUATT against GZMA,inactive: -0.234
19,GCUUUUCGGGAAGAAGGUUTT against OPN1MW,inactive: -0.369
20,CUAGUUUGUUGCAAAAUAATT against CDKN2C,inactive: -0.0789
21,ACCUCUUCACUGAAAGUUATT against VENTX,inactive: 0.669
22,CCCAGGAUGUUUGCACAUATT against TSHB,inactive: -0.247

row,Sequence,median seed-adjusted z-score
1,GGAUCGGAUAAAUAACAGUTT against HEY2,inactive: -0.0831
2,GAGACCCACUUUUUCCGGATT against NKX6-1,inactive: -0.0317
3,GCUAAUCCAUUUGAUGACATT against PYGO1,active: -1.23
4,GCAACGUUCUGGUGCGGAATT against ADCK5,inactive: 0.958
5,GGCUCAGAGUACAAGUACATT against FTSJ1,inactive: 0.0774
6,GCUUUGAGGAAAAUCCGAATT against SLC26A3,inactive: -0.506
7,CAACCUCUCUUUGAACCGUTT against FOXK1,inactive: 0.63
8,CGUCGAAUUCCAAUCUUAUTT against ARL6,inactive: 0.442
9,UAAUUGACCUGACCAGUUUTT against SLC30A8,inactive: -0.767
10,GAGAUUCAUCGGUUCAAUATT against WRNIP1,inactive: 0.00972
11,GCAUCUUUCUAGACCAUAUTT against TTBK2,inactive: 0.423
12,GGAAUUCCGUAAAAGCAUUTT against HOXC13,inactive: -0.318
13,GGUGGAACAUCAUAUCAAATT against DDX50,inactive: 0.359
14,GGAAGCUCACUUUAUGCUATT against PCDHGA10,inactive: 0.0621
15,GAAUGCAGGUUGCAAAUAUTT against SPG7,inactive: -0.293
16,GGUCAACGGCGAACUCAGATT against FAHD1,inactive: -0.157
17,CGGUACUACUAGUGAACUATT against APEH,inactive: -0.0726
18,GACAUCCAGUUGUGAAUUUTT against GNL1,inactive: 0.154
19,GAUUGGAAGUCGUCAACAATT against AFG3L2,inactive: 0.117
20,UGUCUGUUAUGAUGCGUUUTT against GJC1,inactive: -0.0291
21,GCACAAACACUAUUAAAUUTT against PPAPDC1A,inactive: 0.634
22,CCAUUGAAGAGGCUAUGAATT against SPAG7,inactive: 0.263

row,Sequence,median seed-adjusted z-score
1,GGCUAUUAUUUGACUUGUUTT against CCL13,inactive: 0.135
2,CGAUGACCCUGACAGAUGUTT against NOD1,inactive: 0.092
3,CCCUAGUGAUGAUCUCGGATT against TRPV2,inactive: -0.227
4,CACCAGUGGUCUACACUAUTT against LRGUK,inactive: 0.166
5,GAGAUACUCCUGAGAAUAATT against NDUFV2,inactive: -0.794
6,CGGAAAGAAAGGUACCCGATT against BRSK2,inactive: -0.12
7,AGCUUUACCUGUUCCACGATT against MRPS17,inactive: -0.313
8,CAACGUGACUGUGAAGGCATT against ITGA3,inactive: 0
9,CCUCCAUGUCCAACCCAUATT against FOSL2,inactive: -0.372
10,CCAGGAAACGAAAACCUAATT against GATA6,inactive: 0.546
11,CAGCUGUUGUUGAGCGAAUTT against CASP2,inactive: 0.421
12,CACGUGGAGUAUUACACUATT against B4GALNT2,inactive: -0.174
13,GGACUUGUCAAAUACCAGUTT against SGOL2,inactive: 0.114
14,GGCAUGUCGGUUACAAGAATT against RRBP1,inactive: -0.254
15,GUCCACAACUUGUAAGGCATT against SATB2,inactive: -0.389
16,AGAUCAUGUUGCUCAAAAUTT against CNIH4,inactive: -0.0718
17,GGAUUCUUGUUGGACUAAUTT against RHBDD1,inactive: 0.00277
18,AUAUCGAAUUGUUUCGCAATT against HTRA1,inactive: 0.031
19,CAUUGAACCUUGUAAUUCUTT against LIG4,inactive: 0.576
20,CACCAACCGCUGGUCCUUUTT against RAB40C,inactive: -0.161
21,GGAUUUGACCGACUGAUAUTT against SNRNP40,inactive: 0.677
22,CCAGCUUAAUGGACAUCUATT against ARSH,inactive: -0.0414

# Reformatted tab-delimited: entries from further up
row	Sequence	median seed-adjusted z-score
19	GCUUUUCGGGAAGAAGGUUTT against OPN1MW	inactive: -0.369
20	CUAGUUUGUUGCAAAAUAATT against CDKN2C	inactive: -0.0789
8	CGUCGAAUUCCAAUCUUAUTT against ARL6	inactive: 0.442
5	GAGAUACUCCUGAGAAUAATT against NDUFV2	inactive: -0.794

# The list continues.

row,Sequence,median seed-adjusted z-score
1,CCUAAGUGCUUGCACCCUATT against HOXA7,inactive: -0.129
2,GGGACCGAGAGAUCAGAUATT against PPAP2C,active: -1.12
3,CCCUGGUUCUGGCUACUGUTT against DLK2,inactive: -0.695
4,GGCUCACACUGAGAAUGUATT against CALR,inactive: -0.795
5,GGAAGGCCCUGUGAAGAAATT against PNPO,inactive: -0.0845
6,GUAUUAAGCUCAUCAUGGATT against JAK1,inactive: 0.0199
7,AGCUAUUGGUGGGCCGUCATT against KCNG2,inactive: 0
8,CAUCCAGUCUGACGACAAATT against UQCRC2,inactive: -0.848
9,AGACCAUUGUGACAGCUGUTT against SLC6A7,inactive: 0.00508
10,GGAGUAACAGUACAUCUAUTT against PHC3,inactive: -0.204
11,GUAUUUCCCGUGACUCGUATT against TAF5,inactive: -0.192
12,ACCUGAGUGUGAACCUCUATT against GDPD5,inactive: -0.0618
13,GAAUGUACAGUGAUCGGAATT against UTRN,inactive: 0.909
14,CAGACAGUGGAGUACCUCATT against LARP7,inactive: -0.483
15,GCAUACUUCUGUGAGAACATT against TNFRSF13B,inactive: 0.152
16,CAGUGAUAGGAACACCAUUTT against STK4,inactive: 0.652
17,GCACUAAGAUUGAUUGGAATT against CAPZA2,inactive: 0
18,CCAUGGAUGAAAAUUCGAATT against ACADSB,inactive: -0.436
19,AGCGCAAAGUGAACAAGAATT against CDX1,inactive: 0
20,CAGAAAUCCUGAACUAUGATT against STK17B,inactive: -0.971
21,GGAUGAGUACGAUACCGAATT against ZDHHC17,inactive: 0.526
22,GGGCGGCACCAGAUUGUUATT against NPM3,inactive: 0.0417

row,Sequence,median seed-adjusted z-score
1,GACCUGAUGUUCGACCUGATT against SOX11,inactive: 0.02
2,GGAAUGGUCUGGUACAUGUTT against SLC17A6,inactive: 0.339
3,GCAAUUUGAUUCGUUCAGATT against TRIP12,inactive: 0.16
4,GUAUACCGGUCAUACCGUATT against ZNF223,inactive: 0.367
5,GCUGGGAAAGUAGAAGAAATT against CCNK,inactive: -0.717
6,CCAACAUACUAGUCAAUAATT against EFTUD1,active: -1.39
7,AGACUUUCGAACAAACAAATT against NKX6-1,inactive: -0.0317
8,GCCGAGGAACAAUCUCUCATT against RASGRP4,inactive: 0.162
9,UCGGUGACGUGAUCCAGAATT against FGD2,inactive: 0.0293
10,GAUUUUGGUUUCUCAUGUATT against GPR174,inactive: -0.324
11,AGAAGACCCGUAGACUGAATT against NEUROG2,inactive: -0.366
12,AGAUCAUCCUGACCGUGGATT against GUCY2D,inactive: 0
13,GAAUGCCUUCCAUUAGAUATT against RG9MTD1,inactive: -0.375
14,CAGCGACUCUGUAAGCACATT against CRTAM,inactive: 0.346
15,GGAUUCAGCUAUUCUGGAATT against BAK1,inactive: 0.0419
16,AAAACUUCGUUUCCAUCAATT against ZNF284,inactive: 0.21
17,GACUUCCCGGAGUUCCUGATT against CALM3,inactive: 0.225
18,CCAACAAACUCACCAUACATT against KREMEN1,inactive: 0
